Measurements as given in article PMC8564658.
Results are given in words; binding and its absence hold for the method and conditions named. Binding seen in cells or lysates may run through a third protein. Some entries that bind do so weakly or less than the wild type.

Protein sequences, listed by entry. Tags and fused reporters are not part of them.
UniProt P01108: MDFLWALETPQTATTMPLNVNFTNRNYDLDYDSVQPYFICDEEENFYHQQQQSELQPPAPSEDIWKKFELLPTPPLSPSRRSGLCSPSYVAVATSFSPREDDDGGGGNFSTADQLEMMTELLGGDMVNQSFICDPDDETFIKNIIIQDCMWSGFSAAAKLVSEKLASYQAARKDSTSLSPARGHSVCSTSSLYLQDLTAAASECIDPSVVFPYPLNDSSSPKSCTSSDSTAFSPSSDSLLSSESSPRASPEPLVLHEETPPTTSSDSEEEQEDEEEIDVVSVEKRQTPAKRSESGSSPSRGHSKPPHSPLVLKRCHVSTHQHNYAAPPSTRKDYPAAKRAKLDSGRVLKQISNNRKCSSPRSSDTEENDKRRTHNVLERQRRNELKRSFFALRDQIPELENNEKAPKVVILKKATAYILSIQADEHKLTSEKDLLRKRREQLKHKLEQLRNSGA
UniProt Q61188: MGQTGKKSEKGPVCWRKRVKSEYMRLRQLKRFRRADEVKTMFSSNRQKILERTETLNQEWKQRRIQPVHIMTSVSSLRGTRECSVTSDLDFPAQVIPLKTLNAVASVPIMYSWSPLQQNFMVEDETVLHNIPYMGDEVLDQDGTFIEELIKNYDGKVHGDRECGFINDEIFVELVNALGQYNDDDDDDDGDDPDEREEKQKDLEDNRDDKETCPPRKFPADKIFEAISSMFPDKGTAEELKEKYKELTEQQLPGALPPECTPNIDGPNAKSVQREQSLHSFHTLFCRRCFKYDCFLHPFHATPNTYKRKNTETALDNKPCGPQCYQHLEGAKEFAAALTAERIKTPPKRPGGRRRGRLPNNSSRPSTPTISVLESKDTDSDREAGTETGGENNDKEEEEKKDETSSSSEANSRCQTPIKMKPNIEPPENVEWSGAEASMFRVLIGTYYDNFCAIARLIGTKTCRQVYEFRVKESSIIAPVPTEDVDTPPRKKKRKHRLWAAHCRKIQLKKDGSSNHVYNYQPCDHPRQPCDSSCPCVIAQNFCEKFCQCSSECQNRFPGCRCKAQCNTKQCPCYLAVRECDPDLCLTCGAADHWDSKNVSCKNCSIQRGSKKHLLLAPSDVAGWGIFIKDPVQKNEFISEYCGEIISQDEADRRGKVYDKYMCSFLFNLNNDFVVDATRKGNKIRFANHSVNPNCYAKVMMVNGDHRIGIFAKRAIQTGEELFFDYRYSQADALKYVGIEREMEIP
UniProt P13864: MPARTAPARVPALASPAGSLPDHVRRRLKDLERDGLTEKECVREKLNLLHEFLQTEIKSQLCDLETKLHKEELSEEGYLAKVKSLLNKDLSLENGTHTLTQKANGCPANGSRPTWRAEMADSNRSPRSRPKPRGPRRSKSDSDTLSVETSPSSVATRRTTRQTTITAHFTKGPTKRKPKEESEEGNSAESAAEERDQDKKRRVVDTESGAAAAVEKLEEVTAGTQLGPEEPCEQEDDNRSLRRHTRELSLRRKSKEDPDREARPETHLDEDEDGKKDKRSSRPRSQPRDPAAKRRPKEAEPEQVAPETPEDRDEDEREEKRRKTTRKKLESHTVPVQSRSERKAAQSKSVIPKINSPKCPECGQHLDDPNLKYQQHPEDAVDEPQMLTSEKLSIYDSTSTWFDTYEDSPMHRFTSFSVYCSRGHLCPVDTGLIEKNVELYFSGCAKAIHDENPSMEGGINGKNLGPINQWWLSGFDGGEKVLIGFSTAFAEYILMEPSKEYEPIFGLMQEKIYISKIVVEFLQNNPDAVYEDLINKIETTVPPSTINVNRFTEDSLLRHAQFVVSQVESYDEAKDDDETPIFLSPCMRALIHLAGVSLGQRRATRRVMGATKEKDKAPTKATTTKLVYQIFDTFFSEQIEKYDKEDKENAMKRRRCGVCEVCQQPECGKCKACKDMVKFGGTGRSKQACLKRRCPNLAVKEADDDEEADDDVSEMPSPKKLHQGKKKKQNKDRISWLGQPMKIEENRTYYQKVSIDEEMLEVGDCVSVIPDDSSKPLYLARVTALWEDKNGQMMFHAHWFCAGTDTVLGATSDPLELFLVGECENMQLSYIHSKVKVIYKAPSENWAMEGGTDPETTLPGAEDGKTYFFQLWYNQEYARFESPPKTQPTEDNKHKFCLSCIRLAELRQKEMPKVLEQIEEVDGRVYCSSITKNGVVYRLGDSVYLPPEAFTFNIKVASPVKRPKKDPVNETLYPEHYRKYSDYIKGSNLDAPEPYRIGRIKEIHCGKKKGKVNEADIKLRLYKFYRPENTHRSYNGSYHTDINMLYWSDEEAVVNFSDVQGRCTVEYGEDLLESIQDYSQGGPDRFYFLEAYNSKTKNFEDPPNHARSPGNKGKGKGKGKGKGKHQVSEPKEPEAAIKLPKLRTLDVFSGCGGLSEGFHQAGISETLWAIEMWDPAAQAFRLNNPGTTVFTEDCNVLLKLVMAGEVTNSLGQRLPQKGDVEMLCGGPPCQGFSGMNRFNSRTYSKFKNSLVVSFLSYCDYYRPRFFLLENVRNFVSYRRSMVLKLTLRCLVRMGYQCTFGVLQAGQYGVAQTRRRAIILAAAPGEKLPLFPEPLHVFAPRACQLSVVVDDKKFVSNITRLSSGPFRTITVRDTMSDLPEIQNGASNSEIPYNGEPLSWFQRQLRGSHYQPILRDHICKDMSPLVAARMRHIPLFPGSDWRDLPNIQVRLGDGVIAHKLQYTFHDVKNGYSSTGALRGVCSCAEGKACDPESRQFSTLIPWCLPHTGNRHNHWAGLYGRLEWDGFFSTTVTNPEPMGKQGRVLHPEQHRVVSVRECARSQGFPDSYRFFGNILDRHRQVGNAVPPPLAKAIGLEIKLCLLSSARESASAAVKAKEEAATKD

Key:
[1] = molecular target: c-Myc (mouse (endogenous in MPC-5 podocytes)) (UniProt P01108); experiment: co-IP; lysates (NP-40 lysis buffer, 1% PMSF) of podocytes treated with Hcy; indicated antibody 2 h, Protein-G beads 2 h at 4 °C; western blotting
[2] = molecular target: enhancer of zeste homolog 2 (mouse (endogenous in MPC-5 podocytes)) (UniProt Q61188); experiment: as above
[3] = molecular target: FLAG-tagged c-Myc (UniProt P01108); experiment: co-IP; cells co-transfected with Myc-tagged EZH2, Myc-tagged DNMT1 and different FLAG-tagged c-Myc fragments

## DNA methyltransferase 1 (from UniProt P13864 1-1620)
[1]
  binding: binds
[2]
  binding: binds

## Myc-tagged DNMT1 (from UniProt P13864 1-1620)
[3]
  binding: binds

## Myc-tagged EZH2 (from UniProt Q61188 1-746)
[3]
  binding: binds

## enhancer of zeste homolog 2 (from UniProt Q61188 1-746)
[1]
  binding: binds
